Measured values taken from PMC3036580.
No constants are given. Whether binding was seen depends on the method and setting. For part of these data: Binding seen in cells or lysates may run through a third protein. Some results given as binding are weak or reduced against the parent protein; the word gives no strength. For part of these data: Sequences can lack the tags named with a protein.

Amino acid sequences for entries named in this document (tags omitted). Residues count along the entry.
UniProt Q62120: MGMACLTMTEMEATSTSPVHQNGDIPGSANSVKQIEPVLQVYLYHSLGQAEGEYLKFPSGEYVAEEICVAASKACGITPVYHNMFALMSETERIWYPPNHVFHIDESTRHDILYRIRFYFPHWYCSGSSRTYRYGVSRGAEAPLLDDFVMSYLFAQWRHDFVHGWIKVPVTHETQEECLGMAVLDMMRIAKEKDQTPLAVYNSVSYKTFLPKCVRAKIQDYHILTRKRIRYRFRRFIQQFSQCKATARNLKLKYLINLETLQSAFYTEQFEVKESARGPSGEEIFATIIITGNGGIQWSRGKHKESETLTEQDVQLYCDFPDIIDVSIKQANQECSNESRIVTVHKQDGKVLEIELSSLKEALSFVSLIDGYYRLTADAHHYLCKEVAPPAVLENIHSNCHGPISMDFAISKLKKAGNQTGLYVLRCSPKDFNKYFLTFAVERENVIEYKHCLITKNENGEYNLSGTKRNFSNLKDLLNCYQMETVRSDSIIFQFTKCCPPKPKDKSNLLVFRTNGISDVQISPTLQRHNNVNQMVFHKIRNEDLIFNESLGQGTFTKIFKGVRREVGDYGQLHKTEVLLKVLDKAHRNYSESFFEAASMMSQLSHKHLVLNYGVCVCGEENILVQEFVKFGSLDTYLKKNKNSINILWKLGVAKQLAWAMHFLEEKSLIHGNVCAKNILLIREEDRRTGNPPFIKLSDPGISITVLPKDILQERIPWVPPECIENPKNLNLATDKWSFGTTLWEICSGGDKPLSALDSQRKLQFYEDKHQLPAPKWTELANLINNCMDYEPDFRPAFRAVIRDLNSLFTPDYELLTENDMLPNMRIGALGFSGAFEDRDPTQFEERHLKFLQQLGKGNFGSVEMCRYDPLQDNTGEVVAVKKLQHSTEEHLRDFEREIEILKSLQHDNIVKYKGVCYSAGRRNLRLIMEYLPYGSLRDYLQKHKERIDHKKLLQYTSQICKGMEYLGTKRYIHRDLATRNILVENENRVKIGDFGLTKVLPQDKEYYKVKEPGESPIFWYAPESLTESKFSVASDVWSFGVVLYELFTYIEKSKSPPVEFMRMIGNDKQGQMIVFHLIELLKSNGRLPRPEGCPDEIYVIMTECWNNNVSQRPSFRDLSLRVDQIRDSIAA
UniProt P01241, residues 27-217: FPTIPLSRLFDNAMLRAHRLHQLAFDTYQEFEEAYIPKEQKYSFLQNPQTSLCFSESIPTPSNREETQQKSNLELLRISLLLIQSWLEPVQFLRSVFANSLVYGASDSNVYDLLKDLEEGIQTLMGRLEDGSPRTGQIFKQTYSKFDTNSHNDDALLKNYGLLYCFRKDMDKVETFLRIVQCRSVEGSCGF

Key:
GHR-Rluc (rabbit) = target: T1, GHR-Rluc (rabbit) (UniProt P19941); experiment: FRET or BRET; BRET in living Hek293-TR cells stably expressing GHR-Rluc (donor) and doxycycline-induced YFP-Jak2 (acceptor); ViviRen 60 µM, 37°C, PBS with 0.1% glucose and 25 mM Hepes; without GH or with 200 ng/ml hGH (0-4 min, 10-14 min)
T1 sequence: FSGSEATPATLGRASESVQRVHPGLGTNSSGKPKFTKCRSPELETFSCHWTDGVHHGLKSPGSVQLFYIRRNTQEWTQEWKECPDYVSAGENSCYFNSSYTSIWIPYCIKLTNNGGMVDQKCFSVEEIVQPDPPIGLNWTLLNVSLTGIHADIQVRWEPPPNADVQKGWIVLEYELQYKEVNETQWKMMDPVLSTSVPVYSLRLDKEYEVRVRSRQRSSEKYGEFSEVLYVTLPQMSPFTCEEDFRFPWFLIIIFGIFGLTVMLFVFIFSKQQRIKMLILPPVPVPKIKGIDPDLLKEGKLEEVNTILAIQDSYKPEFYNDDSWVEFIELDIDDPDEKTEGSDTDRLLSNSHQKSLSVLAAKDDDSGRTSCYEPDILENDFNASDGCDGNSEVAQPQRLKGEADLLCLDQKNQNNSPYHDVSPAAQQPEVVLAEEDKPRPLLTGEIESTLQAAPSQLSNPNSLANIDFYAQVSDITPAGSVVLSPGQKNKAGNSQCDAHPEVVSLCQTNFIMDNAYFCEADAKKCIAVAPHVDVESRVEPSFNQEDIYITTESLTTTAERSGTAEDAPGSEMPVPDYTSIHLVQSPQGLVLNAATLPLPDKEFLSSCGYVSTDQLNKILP

[1] = target: T2, growth hormone receptor (rabbit, wild type) (rabbit) (UniProt P19941); experiment: co-IP; GHR immunoprecipitated with anti-GHR and protein A beads from lysates of GHR-expressing Hek293 cells transfected with Flag-Jak2 constructs; lysis in 20 mM Tris pH 8.0, 150 mM NaCl, 0.5% NP40; blot with anti-Flag; cells with or without GH for 15 min at 37°C
T2 sequence: T1 sequence

[2] = target: T2, growth hormone receptor (rabbit, wild type) (rabbit); experiment: labelling of cells with fluorescent ligand (Cy3-GH), confocal microscopy; GHR-expressing Hek293 cells incubated with Cy3-GH for 15 min at 37°C; Hek293 cells without GHR as control (not shown); only the binder purified

YFP-Jak2 (wt) (from UniProt Q62120 1-1132) (enzyme)
binding (GHR-Rluc (rabbit)): binds

Flag-tagged wild-type mouse Jak2 (from UniProt Q62120 1-1132) (enzyme)
binding [1]: binds

Cy3-labelled growth hormone (from UniProt P01241 27-217) (ligand)
binding [2]: binds
